The results in this text go back to paper PMC8894380.

Assay [1] addresses T1, C9ORF78 with C-terminal 3xFlag-His6-Biotin-His6 tag (human) (UniProt Q9NZ63).
T1 sequence: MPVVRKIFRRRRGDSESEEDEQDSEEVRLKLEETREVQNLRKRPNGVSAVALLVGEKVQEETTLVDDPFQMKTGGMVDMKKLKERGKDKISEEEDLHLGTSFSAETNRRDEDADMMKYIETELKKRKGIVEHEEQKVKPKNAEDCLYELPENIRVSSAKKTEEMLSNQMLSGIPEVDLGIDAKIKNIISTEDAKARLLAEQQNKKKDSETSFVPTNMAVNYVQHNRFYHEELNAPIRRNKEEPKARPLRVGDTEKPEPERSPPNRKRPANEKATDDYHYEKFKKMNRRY
In words: affinity purification with mass spectrometry; Flag-IP (Flag M2 affinity gel) from 500 ug nuclear extract of Flp-In T-REx 293 stable cells, IP buffer 150 mM NaCl with benzonase, eluted with 3xFlag peptide; label-free LC-MS against control IP of unmodified cells.

Assay [2] has as its target T2, C9ORF78^R41A with C-terminal 3xFlag-His6-Biotin-His6 tag (human) (UniProt Q9NZ63).
T2 sequence: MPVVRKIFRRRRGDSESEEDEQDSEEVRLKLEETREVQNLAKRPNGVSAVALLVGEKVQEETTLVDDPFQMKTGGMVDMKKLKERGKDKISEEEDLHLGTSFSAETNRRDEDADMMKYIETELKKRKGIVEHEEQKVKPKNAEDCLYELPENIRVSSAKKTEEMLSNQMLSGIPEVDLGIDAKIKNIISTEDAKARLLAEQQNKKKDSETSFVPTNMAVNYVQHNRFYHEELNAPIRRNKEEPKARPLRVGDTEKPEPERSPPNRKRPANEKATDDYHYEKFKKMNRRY
The description is as above.

These are yes or no findings as the source states them, for the method shown. In cells and extracts the contact can be indirect. A yes stands for co-enrichment or nearness to the bait. Other partners may have been found. Where a sequence is shown, tags or fusion partners need not be part of it.

B1: DHX35 (protein, UniProt Q9H5Z1 1-703)
chain: MAAPVGPVKFWRPGTEGPGVSISEERQSLAENSGTTVVYNPYAALSIEQQRQKLPVFKLRNHILYLIENYQTVVIVGETGCGKSTQIPQYLAEAGWTAEGRVVGVTQPRRVAAVTVAGRVAEERGAVLGHEVGYCIRFDDCTDQLATRIKFLTDGMLVREMMVDPLLTKYSVIMLDEAHERTLYTDIAIGLLKKIQKKRGDLRLIVASATLDADKFRDFFNQNETSDPARDTCVILTVEGRTFPVDIFYLQSPVPDYIKSTVETVVKIHQTEGDGDVLAFLTGQEEVETVVSMLIEQARALARTGMKRHLRVLPMYAGLPSFEQMKVFERVSRSVRKVIVATNVAETSITISGIVYVIDCGFVKLRAYNPRTAIECLVVVPVSQASANQRAGRGGRSRSGKCYRLYTEEAFDKLPQSTVPEMQRSNLAPVILQLKALGIDNVLRFHFMSPPPAQSMVQALELLYALGGLDKDCRLTEPLGMRIAEFPLNPMFAKMLLESGNFGCSQEILSIAAMMQIQNIFVVPPNQKSHAIRVHRKFAVEEGDHLTMLNIYEAFIKHNKDSKWCQEHFLNYKGLVRAATVREQLKKLLVKFQVPRKSSEGDPDLVLRCIVSGFFANAARFHSTGAYRTIRDDHELHIHPASVLYAEKPPRWVIYNEVIQTSKYYMRDVTAIESAWLLELAPHFYQQGTHLSLKAKRAKVQDP
Regarding B1, the binding entry in assay [1] is on record as “binds”.

B2: PRPF38A (protein, UniProt Q8NAV1 1-312)
chain: MANRTVKDAHSIHGTNPQYLVEKIIRTRIYESKYWKEECFGLTAELVVDKAMELRFVGGVYGGNIKPTPFLCLTLKMLQIQPEKDIIVEFIKNEDFKYVRMLGALYMRLTGTAIDCYKYLEPLYNDYRKIKSQNRNGEFELMHVDEFIDELLHSERVCDIILPRLQKRYVLEEAEQLEPRVSALEEDMDDVESSEEEEEEDEKLERVPSPDHRRRSYRDLDKPRRSPTLRYRRSRSRSPRRRSRSPKRRSPSPRRERHRSKSPRRHRSRSRDRRHRSRSKSPGHHRSHRHRSHSKSPERSKKSHKKSRRGNE
Consider B2, for which the binding entry in assay [2] is “binds”.

B3: PRPF22 (DHX8) (enzyme, UniProt Q14562 1-1220)
chain: MAVAVAMAGALIGSEPGPAEELAKLEYLSLVSKVCTELDNHLGINDKDLAEFVISLAEKNTTFDTFKASLVKNGAEFTDSLISNLLRLIQTMRPPAKPSTSKDPVVKPKTEKEKLKELFPVLCQPDNPSVRTMLDEDDVKVAVDVLKELEALMPSAAGQEKQRDAEHRDRTKKKKRSRSRDRNRDRDRDRERNRDRDHKRRHRSRSRSRSRTRERNKVKSRYRSRSRSQSPPKDRKDRDKYGERNLDRWRDKHVDRPPPEEPTIGDIYNGKVTSIMQFGCFVQLEGLRKRWEGLVHISELRREGRVANVADVVSKGQRVKVKVLSFTGTKTSLSMKDVDQETGEDLNPNRRRNLVGETNEETSMRNPDRPTHLSLVSAPEVEDDSLERKRLTRISDPEKWEIKQMIAANVLSKEEFPDFDEETGILPKVDDEEDEDLEIELVEEEPPFLRGHTKQSMDMSPIKIVKNPDGSLSQAAMMQSALAKERRELKQAQREAEMDSIPMGLNKHWVDPLPDAEGRQIAANMRGIGMMPNDIPEWKKHAFGGNKASYGKKTQMSILEQRESLPIYKLKEQLVQAVHDNQILIVIGETGSGKTTQITQYLAEAGYTSRGKIGCTQPRRVAAMSVAKRVSEEFGCCLGQEVGYTIRFEDCTSPETVIKYMTDGMLLRECLIDPDLTQYAIIMLDEAHERTIHTDVLFGLLKKTVQKRQDMKLIVTSATLDAVKFSQYFYEAPIFTIPGRTYPVEILYTKEPETDYLDASLITVMQIHLTEPPGDILVFLTGQEEIDTACEILYERMKSLGPDVPELIILPVYSALPSEMQTRIFDPAPPGSRKVVIATNIAETSLTIDGIYYVVDPGFVKQKVYNSKTGIDQLVVTPISQAQAKQRAGRAGRTGPGKCYRLYTERAYRDEMLTTNVPEIQRTNLASTVLSLKAMGINDLLSFDFMDAPPMETLITAMEQLYTLGALDDEGLLTRLGRRMAEFPLEPMLCKMLIMSVHLGCSEEMLTIVSMLSVQNVFYRPKDKQALADQKKAKFHQTEGDHLTLLAVYNSWKNNKFSNPWCYENFIQARSLRRAQDIRKQMLGIMDRHKLDVVSCGKSTVRVQKAICSGFFRNAAKKDPQEGYRTLIDQQVVYIHPSSALFNRQPEWVVYHELVLTTKEYMREVTTIDPRWLVEFAPAFFKVSDPTKLSKQKKQQRLEPLYNRYEEPNAWRISRAFRRR
B3: the binding entry in assay [1] and in assay [2] was “binds” throughout.

B4: aquarius (AQR) (protein, UniProt O60306 1-1485)
chain: MAAPAQPKKIVAPTVSQINAEFVTQLACKYWAPHIKKKSPFDIKVIEDIYEKEIVKSRFAIRKIMLLEFSQYLENYLWMNYSPEVSSKAYLMSICCMVNEKFRENVPAWEIFKKKPDHFPFFFKHILKAALAETDGEFSLHEQTVLLLFLDHCFNSLEVDLIRSQVQQLISLPMWMGLQLARLELELKKTPKLRKFWNLIKKNDEKMDPEAREQAYQERRFLSQLIQKFISVLKSVPLSEPVTMDKVHYCERFIELMIDLEALLPTRRWFNTILDDSHLLVHCYLSNLVRREEDGHLFSQLLDMLKFYTGFEINDQTGNALTENEMTTIHYDRITSLQRAAFAHFPELYDFALSNVAEVDTRESLVKFFGPLSSNTLHQVASYLCLLPTLPKNEDTTFDKEFLLELLVSRHERRISQIQQLNQMPLYPTEKIIWDENIVPTEYYSGEGCLALPKLNLQFLTLHDYLLRNFNLFRLESTYEIRQDIEDSVSRMKPWQSEYGGVVFGGWARMAQPIVAFTVVEVAKPNIGENWPTRVRADVTINLNVRDHIKDEWEGLRKHDVCFLITVRPTKPYGTKFDRRRPFIEQVGLVYVRGCEIQGMLDDKGRVIEDGPEPRPNLRGESRTFRVFLDPNQYQQDMTNTIQNGAEDVYETFNIIMRRKPKENNFKAVLETIRNLMNTDCVVPDWLHDIILGYGDPSSAHYSKMPNQIATLDFNDTFLSIEHLKASFPGHNVKVTVEDPALQIPPFRITFPVRSGKGKKRKDADVEDEDTEEAKTLIVEPHVIPNRGPYPYNQPKRNTIQFTHTQIEAIRAGMQPGLTMVVGPPGTGKTDVAVQIISNIYHNFPEQRTLIVTHSNQALNQLFEKIMALDIDERHLLRLGHGEEELETEKDFSRYGRVNYVLARRIELLEEVKRLQKSLGVPGDASYTCETAGYFFLYQVMSRWEEYISKVKNKGSTLPDVTEVSTFFPFHEYFANAPQPIFKGRSYEEDMEIAEGCFRHIKKIFTQLEEFRASELLRSGLDRSKYLLVKEAKIIAMTCTHAALKRHDLVKLGFKYDNILMEEAAQILEIETFIPLLLQNPQDGFSRLKRWIMIGDHHQLPPVIKNMAFQKYSNMEQSLFTRFVRVGVPTVDLDAQGRARASLCNLYNWRYKNLGNLPHVQLLPEFSTANAGLLYDFQLINVEDFQGVGESEPNPYFYQNLGEAEYVVALFMYMCLLGYPADKISILTTYNGQKHLIRDIINRRCGNNPLIGRPNKVTTVDRFQGQQNDYILLSLVRTRAVGHLRDVRRLVVAMSRARLGLYIFARVSLFQNCFELTPAFSQLTARPLHLHIIPTEPFPTTRKNGERPSHEVQIIKNMPQMANFVYNMYMHLIQTTHHYHQTLLQLPPAMVEEGEEVQNQETELETEEEAMTVQADIIPSPTDTSCRQETPAFQTDTTPSETGATSTPEAIPALSETTPTVVGAVSAPAEANTPQDATSAPEETK
Consider B4, for which the binding entry in assay [1] and in assay [2] was “binds” each time.
